# Measured values published in PubChem BioAssay AID1259415 (National Center for Advancing Translational Sciences (NCATS), 2018).
# “And” between values parts separate entries of the source, which are not always exact repeats. Identical values can stand only once. Out of some 410,000 compounds screened, about 18,000 (4.4%) were called active. Inconclusive means that the source gave no clear call. Such entries were picked first, then a sample of the others. Rule as the data show it: active = activity change below about -60%; inconclusive = no clear call, values can overlap the other calls; inactive = above about -39%. More than one record can exist for a structure, and the calls need not agree.
# Assay: qHTS Assay for inhibitors of the human cytomegalovirus (HCMV)
# Settings: HFF cells, HCMV-luciferase reporter, 72 h; at 57.5 µM; stronger effect = lower value
# Method in brief: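 Human foreskin fibroblasts infected with luciferase-reporter HCMV at MOI 1 PFU/cell, compounds at two doses. Luciferase measured 72 h post infection; normalized to buffer-only basal and Salinomycin (10uM) controls.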
# % is scaled to controls: 0 for no effect and ±100 for the full control effect.
row,SMILES,"activity change, negative = inhibition"
1,C/C(=N\Nc1ccccn1)c1ccc(C(C)C)cc1,inconclusive: -46.6%
2,N#C/C(=C(/O)c1ccco1)c1nc2ccccc2s1,inactive: 50.5% and inactive: 47.6%
3,Cc1cc2c(cc1C)N(C(=O)CSC1=NCCS1)C(C)(C)c1ssc(=S)c1-2,active: -72%
4,Cc1nc(N2CCOCC2)c2c(C(=O)NCCc3ccccc3)c(C)oc2n1,inconclusive: -46.1%
5,CCCCn1cc2c(c1-c1ccccc1Br)c(=O)n(C)c(=O)n2C,inactive: -17.4%
6,CN1CCc2c(sc(NC(=O)CS(=O)(=O)c3ccccc3)c2C(N)=O)C1,inactive: -5.51%
7,Cc1cnc(NC(=O)c2nn(C)cc2[N+](=O)[O-])s1,active: -99%
8,COc1cccc(-n2c(SCC(=O)c3c[nH]c4ccccc34)nc3ccccc3c2=O)c1,active: -93.8%
9,CCOC1=C2CN(S(=O)(=O)c3ccc(C)cc3)[C@H](c3cccc4ccccc34)C[C@H]2[C@H]2C(=O)N(c3ccccc3)C(=O)[C@H]2C1,inactive: 5.17%
10,CCc1cc(C(=O)N2CCc3c([nH]c4ccccc34)C2c2ccc(OC)cc2F)no1 (stereo unspecified),active: -63.7%
11,Cc1ccc(C(=O)Nc2nc3ccc(S(=O)(=O)N4CCCC4)cc3s2)cc1,inactive: -6.54%
12,COc1ccc(-c2n[nH]c(=S)n2/N=C/c2cccn2C)cc1,inconclusive: -47.6%
13,Cc1ccc(NC(=O)c2ccccc2)cc1-n1cnnn1,active: -73.2%
14,CC1CCN(c2nc3c(c(=O)[nH]c(=O)n3C)n2CC(C)CSc2nnnn2-c2ccccc2)CC1 (stereo unspecified),inconclusive: -46.5%
15,CC(C)(C)NC(=O)C1CCC(CNc2c(N3CCCCC3)c(=O)c2=O)CC1 (stereo unspecified),inactive: -12.2%
16,CCOc1ccc(NS(=O)(=O)c2cccc(C(=O)N(C)Cc3ccco3)c2)cc1,inactive: 45.5%
17,C/C(=C\C(=O)c1cccnc1)Nc1ccc(O)cc1,inactive: 6.63%
18,O=C(Nc1ccc(F)cc1)c1cccnc1NCCc1ccccc1,inactive: -29.4%
19,CC(C)N1CCC(=NNc2ccc(S(=O)(=O)N3CCOCC3)cc2[N+](=O)[O-])CC1,inconclusive: -42.5%
20,CCN(CC)C(=O)CSc1nc(C)cc(-c2cccs2)c1C#N,inconclusive: -56.6%
21,C=CCOc1c(Br)cc(CNn2nnnc2N)cc1OC,inconclusive: -40.8%
22,FC(F)(F)c1ccccc1Cc1c(-c2ccco2)nc2c3ccccc3ccn12,inactive: 33.3%

row,SMILES,"activity change, negative = inhibition"
1,CCCc1nnc(NC(=O)CCC(=O)N2CCN(Cc3ccc(Cl)cc3)CC2)s1,inactive: -2.26%
2,COc1cccc(C(=O)OCC(=O)NC23CC4CC(CC(C4)C2)C3)c1,inconclusive: -56.5%
3,CCS(=O)(=O)Nc1c(C(=O)OC)[nH]c2ccccc12,inactive: 36.2%
4,Cc1ccccc1Nc1sc(C(=O)c2ccccc2)c(N)c1C(=O)NCc1ccc(Cl)cc1,inconclusive: -52.3%
5,CCN1CCN(c2sc(S(C)(=O)=O)nc2S(=O)(=O)c2ccc(C)cc2)CC1,active: -91.1%
6,N#Cc1ccccc1NC(=O)c1ccc2c(Cl)c3c(nc2c1)CCCC3,inconclusive: -52.8%
7,CCCn1c(SCc2nc3ccccc3s2)n[nH]c1=O,inactive: 255%
8,CN1CCC(Oc2ccc(Sc3ccccc3)cc2)CC1,inconclusive: -58.7%
9,CCCNC(=O)c1c(C)nn(-c2cccc(C)c2)c1-n1cccc1,inconclusive: 0%
10,CCN(CC)c1ccc(NC(=O)CCNS(=O)(=O)c2ccc3c(c2)CCC(=O)N3)c(C)c1,inconclusive: -41%
11,COCCn1cnc2c1c(=O)n(CC(=O)NC1CCCCC1)c(=O)n2Cc1ccccc1,inactive: -38.8%
12,Cc1cccc(CSCc2ccc(C(=O)O)o2)c1,inactive: -3.21%
13,Cc1ccc(C(O)(c2ccccc2)c2ccccc2C(C)N(C)C)c(C)c1 (stereo unspecified),inconclusive: -50.6%
14,CCN(C(=O)CSc1nnc(-c2ccc3c(c2)OCO3)o1)C1CCS(=O)(=O)C1 (stereo unspecified),inactive: 1.41%
15,CCC1=C(OC(=O)N(CC)CC)N2C(=O)OC(=NCCc3c[nH]c4ccccc34)[C@]2(C)[C@H]2C1=CC[C@H]1C(=O)N(C)C(=O)[C@H]12,inactive: 0.39%
16,CC(CN(C)C)CN1c2ccccc2Sc2ccccc21 (stereo unspecified),inconclusive: -45%
17,COc1cccc(C(=O)N2c3nc(-c4ccco4)nn3C3(CCCCC3)[C@@H]3CCCC[C@@H]32)c1,active: -64.2%
18,N/C(=N\OC(=O)COc1ccccc1)c1ccc(Cl)cc1,inactive: 31%
19,CC(=O)c1c(N2CCCC2)nc(=S)n(-c2ccccc2)c1C,active: -73.9%
20,CN(C)S(=O)(=O)n1cc(/C=C(\NC(=O)c2ccccc2Cl)C(=O)NCCCn2ccnc2)c2ccccc21,active: -105%
21,Cc1ccc(N(C(=O)c2csnn2)C(C(=O)NC2CCCCC2)c2ccccn2)c(C)c1 (stereo unspecified),active: -62%
22,O=C(CSc1nc2c(c(=O)[nH]1)CN(Cc1ccc(F)cc1)CC2)Nc1ccccc1Cl,inactive: -10.3%

row,SMILES,"activity change, negative = inhibition"
1,Cc1ccc(S(=O)(=O)N2CCCC2C(=O)NCc2ccco2)cc1 (stereo unspecified),inconclusive: -46.6%
2,CC1=C(C(=O)N(C(C)C)C(C)C)CC(CC(=O)NCCc2ccccn2)C(=O)N1Cc1ccc(F)cc1 (stereo unspecified),inactive: -10.9%
3,COc1ccc(CCNC(=S)NC2CCN(Cc3ccccc3)CC2)cc1,active: -71.8%
4,Cc1cc(C)nc(-n2nc(C)cc2NC(=O)CN2CCCC2)n1,inconclusive: -56.1%
5,Cc1cc(NC(=O)C(C)SCC(=O)Nc2cccc(S(=O)(=O)N3CCCCCC3)c2)no1 (stereo unspecified),active: -103%
6,COc1ccc(C(=O)O)cc1S(=O)(=O)N1CCN(Cc2ccc3c(c2)OCO3)CC1,inconclusive: -41.1%
7,CC(C)c1ccc(C(CC(=O)O)N2Cc3ccccc3C2=O)cc1 (stereo unspecified),inactive: -20.3%
8,CCOC(=O)C1=C(C)NC(C)=C(C(=O)OCC)C1C(=O)OCC(=O)N1CCCCC1CC (stereo unspecified),inconclusive: -52%
9,CC1CN(C(=O)CCC(=O)N2CCN(c3ccccn3)CC2)c2ccccc2O1 (stereo unspecified),inactive: 16.3%
10,Cc1ccc(-n2c(-c3ccncc3)n[nH]c2=S)cc1,inconclusive: -47.1%
11,Cc1nc2sc(C#N)c(N)c2c2c1CCCC2,inconclusive: -55%
12,CC(C)(C)C(=O)N1CCn2c1nc1ccccc12,inconclusive: -45.6%
13,COC(=O)c1ccc(CN2CCc3ccc(NC(=O)c4ccncc4)cc3C2)cc1,inconclusive: -48.6%
14,COc1ccccc1C(=O)N(CCN(C)C)c1nc2cc(C)cc(C)c2s1,inactive: -20.9%
15,CC(C)(C)C(=O)N/C(N)=N/c1nc2ccccc2o1,inconclusive: -56.5%
16,Fc1ccccc1N1CCN(Cc2cc(-c3ccccc3)on2)CC1,inconclusive: -40.9%
17,COc1cc(/C=C(\C#N)C(=O)Nc2ccccn2)ccc1O,inconclusive: -56.1%
18,O=C(NC12CC3CC(CC(C3)C1)C2)c1cccnc1Cl,inactive: 5.26%
19,CSC1=Nc2sc3c(c2C2=NCCN12)CC(C)(C)OC3,inconclusive: -40.7%
20,CCc1ccc2[nH]c3nc(SCCN4CCOCC4)nnc3c2c1,active: -90.6%
21,Cc1ccc(C(=Cc2ccc([N+](=O)[O-])cc2)C(=O)O)cc1,inconclusive: -57.7%
22,CCc1cccc(NC(=O)c2cn3c4c(ccc(Cl)c4c2=O)OC(C)C3)c1 (stereo unspecified),inactive: -10.8%

row,SMILES,"activity change, negative = inhibition"
1,CC(=O)N1CCc2cc(S(=O)(=O)NCCC(=O)NC3CCCCCC3)ccc21,inconclusive: -45.6%
2,Cc1ccc2nc(N3CCN(c4ccccc4)CC3)c3nnnn3c2c1,inactive: -25.9%
3,O=C(c1cc(COc2ccc3ncccc3c2)on1)N1CCCC1,inconclusive: -49.5%
4,CC(C)(C)NC(=O)C(c1cccs1)N(Cc1cccs1)C(=O)c1ccc(CN2CCOCC2)o1 (stereo unspecified),inconclusive: -52.3%
5,Cc1cc(C(=O)CCC(=O)N2CCN(c3ccccc3F)CC2)c(C)s1,inconclusive: -43.5%
6,CCC1=Nc2cc(C(=O)N3CCC4(CC3)OCCO4)ccc2Sc2ccccc21,inconclusive: -48.7%
7,CCCCCCc1cc2cc(C(=O)NCc3ccccc3)c(=N)oc2cc1O,active: -69.3%
8,c1ccc(-n2cc(CN3CCCC(CN4CCCC4)C3)c(-c3ccc4c(c3)OCO4)n2)cc1 (stereo unspecified),inconclusive: -53.7%
9,COc1ccc(C(=O)CSc2nc3ccccc3n2CC(=O)c2ccccc2)cc1,active: -66.4%
10,CCOc1cc(Cl)c(S(=O)(=O)NCc2ccccn2)cc1Cl,inconclusive: -49.9%
11,N#C/C(=C\c1c(N2CCCCCC2)nc2ccccn2c1=O)C(=O)NCc1ccco1,inconclusive: -46%
12,CC(=O)c1ccc(N2CCN(C(=O)c3ccc(-c4ccccc4)cc3)CC2)cc1,active: -65.8%
13,O=C(N/N=C/c1ccc[nH]1)c1cccc(Br)c1,inconclusive: -41.5%
14,O=c1oc2ccc(Cl)cc2cc1-c1nnc(Nc2cccc(C(F)(F)F)c2)s1,active: -64.2%
15,Cc1ccc(-n2c(SCC(=O)N3CCCc4ccccc43)nnc2-c2cccnc2)c(C)c1,inconclusive: -53.4%
16,Cc1cc(NC(=O)CC#N)n(-c2nc3ccccc3[nH]2)n1,inactive: 224%
17,O=c1[nH]c2ccccc2n1C1CCN(CCCC(c2ccc(F)cc2)c2ccc(F)cc2)CC1,inconclusive: -50.8%
18,C=CCSc1nnc(N2C(=O)C(O)=C(C(=O)c3ccco3)C2c2ccccc2F)s1 (stereo unspecified),inactive: 30.8%
19,CC(C)CCNC(=O)NC(=O)COC(=O)c1cc(S(=O)(=O)N2CCOCC2)ccc1N1CCCCC1,inactive: -13.7%
20,Cc1ccc(COC(=O)CN2C(=O)NC3(CCCCC3C)C2=O)cc1 (stereo unspecified),inactive: 15.8%
